Laboratory results as given in the supplement of paper PMC10849652.
The list shows a part of the results.

What was measured:
Assay in all cases: log2 fold change, soluble protein after heating vs DMSO (PISA); higher = thermal stabilisation; K562 cells, 10 uM, 30 min; active = over 0.2 and 3.5 SD of the protein, either way, in both replicates (recomputed)
gandotinib = compound: Cc1cc(Nc2cc(CN3CCOCC3)c3nc(C)c(Cc4ccc(Cl)cc4F)n3n2)n[nH]1 [gandotinib]
Method in brief: (§1)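 K562 cells at 2×10^6 cells/mL were treated with 10 μM compound for 30 min. Aliquots were heated for 3 min across 48°C-58°C, pooled, and extracted in PBS with 0.5% NP-40 at 4°C; soluble protein was the supernatant after 21,000xg for 90 min. Soluble protein was quantified by TMTpro 16plex LC-MS/MS with channel sums equalised, and reported as log2 fold change in thermal stability against DMSO controls, with values from duplicates.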

[1] = compound: Cc1cccc(CC(=O)N2CCc3c2ccc(-c2cn(C)c4ncnc(N)c24)c3F)n1
Method in brief: as §1

[2] = compound: C[C@@H]1COCCN1C2=NC(=NC(=C2)C3(CC3)S(=O)(=O)C)C4=C5C=CNC5=CC=C4
Method in brief: as §1

tozasertib = compound: Cc1cc(Nc2cc(N3CCN(C)CC3)nc(Sc3ccc(NC(=O)C4CC4)cc3)n2)n[nH]1 [tozasertib]
Method in brief: as §1

bafetinib = compound: Cc1ccc(NC(=O)c2ccc(CN3CC[C@H](N(C)C)C3)c(C(F)(F)F)c2)cc1Nc1nccc(-c2cncnc2)n1 [bafetinib]
Method in brief: as §1

nilotinib = compound: Cc1cn(-c2cc(NC(=O)c3ccc(C)c(Nc4nccc(-c5cccnc5)n4)c3)cc(C(F)(F)F)c2)cn1 [nilotinib]
Method in brief: as §1

[3] = compound: Cc1nc(Nc2n[nH]c3c2CN(C(=O)N[C@H](CN(C)C)c2ccccc2)C3(C)C)c2sccc2n1
Method in brief: as §1

[4] = compound: Cc1ncc(-c2ccnc(Nc3ccc(S(C)(=O)=O)cc3)n2)n1C(C)C
Method in brief: as §1

tipifarnib = compound: Cn1cncc1[C@@](N)(c1ccc(Cl)cc1)c1ccc2c(c1)c(-c1cccc(Cl)c1)cc(=O)n2C [tipifarnib]
Method in brief: as §1

ispinesib = compound: Cc1ccc(C(=O)N(CCCN)[C@@H](c2nc3cc(Cl)ccc3c(=O)n2Cc2ccccc2)C(C)C)cc1 [ispinesib]
Method in brief: as §1

[5] = compound: Cn1cc(-c2ccc3nnc(C(F)(F)c4ccc5ncccc5c4)n3n2)cn1
Method in brief: as §1

[6] = compound: C[C@H](C1=CC=C(C=C1)C(=O)NC2=C3C=CNC3=NC=C2)N
Method in brief: as §1

duvelisib = compound: C[C@H](Nc1ncnc2nc[nH]c12)c1cc2cccc(Cl)c2c(=O)n1-c1ccccc1 [duvelisib]
Method in brief: as §1

[7] = compound: Cc1cc(SCc2sc(-c3ccc(C(F)(F)F)cc3)nc2C)ccc1OCC(=O)O
Method in brief: as §1

dasatinib = compound: Cc1nc(Nc2ncc(C(=O)Nc3c(C)cccc3Cl)s2)cc(N2CCN(CCO)CC2)n1 [dasatinib]
Method in brief: as §1

[8] = compound: Cn1cc(-c2ccc3c(c2)CCN3C(=O)Cc2cccc(C(F)(F)F)c2)c2c(N)ncnc21
Method in brief: as §1

crizotinib = compound: C[C@@H](Oc1cc(-c2cnn(C3CCNCC3)c2)cnc1N)c1c(Cl)ccc(F)c1Cl [crizotinib]
Method in brief: as §1

doramapimod = compound: Cc1ccc(-n2nc(C(C)(C)C)cc2NC(=O)Nc2ccc(OCCN3CCOCC3)c3ccccc23)cc1 [doramapimod]
Method in brief: as §1

mubritinib = compound: FC(F)(F)c1ccc(/C=C/c2nc(COc3ccc(CCCCn4ccnn4)cc3)co2)cc1 [mubritinib]
Method in brief: as §1

[9] = compound: CS(=O)(=O)c1ccc(-c2cnc(N)c(C(=O)Nc3ccccc3)n2)cc1
Method in brief: as §1

Measured: log2 fold change

PPP2R2A, A0A590UJJ1
inactive: gandotinib -0.148 | [1] -0.161

PPP1R13L (UniProt Q8WUF5)
inactive: [2] 0.28 | gandotinib -0.275 | tozasertib -0.112 | bafetinib 0.127 | [1] -0.036 | nilotinib -0.135 | [3] 0.009 | [4] -0.112 | tipifarnib -0.083

PPP1R16A (UniProt Q96I34)
inactive: ispinesib 0.117 | [5] 0.012

PROSER3 (UniProt Q2NL68)
inactive: [6] -0.045 | duvelisib -0.171 | tozasertib 0.103 | [7] -0.316 | bafetinib -0.08 | nilotinib -0.08 | [3] -0.092 | dasatinib -0.052 | [4] -0.229 | [8] 0.006 | tipifarnib 0.18

PPP1R12B isoform 6 (UniProt O60237)
inactive: bafetinib -0.024 | nilotinib -0.004 | [3] -0.191 | [4] 0.007

PRR14L (UniProt Q5THK1)
inactive: [6] -0.072 | gandotinib -0.084 | [1] -0.156 | nilotinib -0.027 | [3] -0.044 | [4] -0.007 | [8] 0.019 | tipifarnib -0.039

PRELID2 (UniProt Q8N945)
inactive: crizotinib -0.281 | doramapimod 0.147

PPP1CC (UniProt F8W1A0)
inactive: gandotinib 0.27 | bafetinib -0.085 | [1] -0.65 | mubritinib 0.324

PRPF39 (UniProt Q86UA1)
inactive: [6] 0.004 | duvelisib 0.169 | tozasertib 0.25 | [7] 0.181 | dasatinib -0.044 | [8] 0.033 | tipifarnib -0.199

PRR4 (UniProt Q16378)
inactive: crizotinib 0.182 | doramapimod -0.284 | ispinesib 0.635 | bafetinib 0.594 | nilotinib 0.439 | [3] 0.068 | [4] -0.181 | [5] -0.053 | mubritinib 0.135

PRR16 (UniProt Q569H4)
inactive: gandotinib -0.025 | [1] 0.13

PPP2R5C isoform 2 (UniProt Q13362)
inactive: crizotinib 0.243 | doramapimod 0.052 | ispinesib 0.023 | bafetinib 0.046 | [5] 0.037 | mubritinib -0.057

PRNP (UniProt P04156)
inactive: [9] 0.104 | gandotinib -0.007 | bafetinib 0.101 | [1] -0.041 | mubritinib -0.032

PPP1R12C (UniProt Q9BZL4)
inactive: [9] -0.016 | [2] -0.198 | gandotinib -0.001 | [7] 0.018 | ispinesib -0.009 | bafetinib -0.085 | nilotinib 0.069 | [3] -0.26 | dasatinib -0.065 | [4] -0.213 | [5] -0.018 | tipifarnib -0.219 | mubritinib -0.118
active: [1] 0.612

PROSER1 (UniProt Q86XN7)
inactive: [9] 0.008 | tozasertib -0.196 | ispinesib -0.118 | [5] 0.145 | tipifarnib 0.03

PRMT6 (UniProt Q96LA8)
inactive: crizotinib -0.019 | [2] 0.051 | [6] 0.149 | duvelisib 0.016 | gandotinib -0.054 | tozasertib -0.009 | [7] 0.197 | doramapimod -0.112 | ispinesib -0.025 | bafetinib -0.001 | [1] 0.041 | nilotinib -0.012 | [3] 0.001 | dasatinib -0.017 | [4] 0.02 | [8] 0.176 | [5] 0.047 | tipifarnib -0.098 | mubritinib 0.105

PRC1 (UniProt O43663)
inactive: [9] 0.029 | [6] 0.12 | tozasertib 0.084 | [8] -0.046

PRRG1 (UniProt O14668)
inactive: crizotinib 0.079 | gandotinib -0.026 | doramapimod -0.053 | ispinesib -0.025 | [1] -0.028 | [5] -0.016 | tipifarnib 0.061 | mubritinib 0.07

PPP1R3D (UniProt O95685)
inactive: crizotinib 0.055 | [6] -0.116 | gandotinib 0.069 | tozasertib 0.09 | doramapimod -0.039 | ispinesib 0.043 | bafetinib -0.083 | [1] 0.108 | nilotinib -0.068 | [3] 0.09 | [4] -0.112 | [8] -0.085 | [5] 0.032 | mubritinib 0.192

PRF1 (UniProt P14222)
inactive: [9] -0.012 | [2] 0.045 | bafetinib -0.06 | tipifarnib -0.007

PRDM2 (UniProt Q13029)
inactive: crizotinib 0.164 | [2] -0.067 | [6] 0.223 | duvelisib 0.032 | gandotinib 0.052 | tozasertib 0.08 | [7] -0.11 | doramapimod 0.237 | ispinesib -0.059 | [1] -0.069 | nilotinib 0.191 | [3] -0.058 | dasatinib 0.111 | [4] -0.06 | [8] -0.138 | [5] -0.152 | tipifarnib 0.004 | mubritinib -0.001

PPP2R3C (UniProt Q969Q6)
inactive: tozasertib 0.007

PRH1 (UniProt P02810)
inactive: nilotinib -0.942 | [3] 0.272 | [4] -0.033

Quoted from the listing (5 entries):
PRMT6 (UniProt Q96LA8)
inactive: crizotinib -0.019 | [2] 0.051 | [6] 0.149 | duvelisib 0.016 | gandotinib -0.054 | tozasertib -0.009 | [7] 0.197 | doramapimod -0.112 | ispinesib -0.025 | bafetinib -0.001 | [1] 0.041 | nilotinib -0.012 | [3] 0.001 | dasatinib -0.017 | [4] 0.02 | [8] 0.176 | [5] 0.047 | tipifarnib -0.098 | mubritinib 0.105

PRC1 (UniProt O43663)
inactive: [9] 0.029 | [6] 0.12 | tozasertib 0.084 | [8] -0.046

PRRG1 (UniProt O14668)
inactive: crizotinib 0.079 | gandotinib -0.026 | doramapimod -0.053 | ispinesib -0.025 | [1] -0.028 | [5] -0.016 | tipifarnib 0.061 | mubritinib 0.07

PPP1R3D (UniProt O95685)
inactive: crizotinib 0.055 | [6] -0.116 | gandotinib 0.069 | tozasertib 0.09 | doramapimod -0.039 | ispinesib 0.043 | bafetinib -0.083 | [1] 0.108 | nilotinib -0.068 | [3] 0.09 | [4] -0.112 | [8] -0.085 | [5] 0.032 | mubritinib 0.192

PRF1 (UniProt P14222)
inactive: [9] -0.012 | [2] 0.045 | bafetinib -0.06 | tipifarnib -0.007

The listing continues.

PPP2R1B (UniProt H0YDG7)
inactive: [9] 0.216 | [6] 0.191 | gandotinib 0.13 | tozasertib -0.002 | bafetinib -0.816 | [1] -0.501 | nilotinib -0.156 | [3] 0.068 | [4] -0.063 | [8] 0.001 | mubritinib -0.056

PRKCSH isoform 2 (UniProt P14314)
inactive: crizotinib -0.065 | [2] -0.339 | [6] -0.168 | duvelisib -0.111 | gandotinib 0.14 | tozasertib -0.067 | [7] -0.048 | doramapimod -0.046 | ispinesib 0.287 | bafetinib -0.127 | [1] 0.18 | nilotinib -0.011 | [3] -0.101 | dasatinib 0.004 | [4] -0.079 | [8] -0.122 | [5] -0.354 | mubritinib -0.027

PPP2R3B (UniProt Q9Y5P8)
inactive: [2] -0.247 | tozasertib 0.06 | nilotinib -0.029 | [3] 0.197 | [4] -0.086 | mubritinib -0.13

PRIMPOL (UniProt Q96LW4)
inactive: [9] -0.19 | [6] 0.122 | duvelisib -0.006 | tozasertib 0.039 | [7] -0.012 | dasatinib 0.035 | [8] 0.021 | tipifarnib -0.143
